Our source for the binding values is patent US20200392225A1.

Protein sequences, listed by entry. Tags and fused reporters are not part of them. Residues count along the entry.
UniProt P02769, residues 25-607: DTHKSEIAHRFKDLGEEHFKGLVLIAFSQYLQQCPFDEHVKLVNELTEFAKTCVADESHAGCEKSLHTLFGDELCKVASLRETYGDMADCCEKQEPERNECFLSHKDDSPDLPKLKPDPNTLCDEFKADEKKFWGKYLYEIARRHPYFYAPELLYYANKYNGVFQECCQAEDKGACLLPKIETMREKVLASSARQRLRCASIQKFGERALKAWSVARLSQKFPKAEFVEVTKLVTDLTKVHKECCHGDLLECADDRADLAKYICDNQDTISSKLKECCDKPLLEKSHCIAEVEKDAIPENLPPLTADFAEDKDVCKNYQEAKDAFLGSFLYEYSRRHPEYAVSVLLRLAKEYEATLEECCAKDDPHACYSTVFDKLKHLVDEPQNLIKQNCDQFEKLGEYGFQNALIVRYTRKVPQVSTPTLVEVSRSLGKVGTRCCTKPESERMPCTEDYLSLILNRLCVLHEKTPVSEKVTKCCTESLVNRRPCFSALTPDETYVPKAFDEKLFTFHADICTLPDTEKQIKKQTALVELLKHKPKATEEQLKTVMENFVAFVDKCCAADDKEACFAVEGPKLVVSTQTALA

Changes are numbered by the printed parent chain. These are yes or no findings as the source states them, for the method shown. Some binding calls cover weakened binding; strength is not graded here.

T1: human NPR3 (counter target) (human) (UniProt P17342)
T1 sequence (looked up): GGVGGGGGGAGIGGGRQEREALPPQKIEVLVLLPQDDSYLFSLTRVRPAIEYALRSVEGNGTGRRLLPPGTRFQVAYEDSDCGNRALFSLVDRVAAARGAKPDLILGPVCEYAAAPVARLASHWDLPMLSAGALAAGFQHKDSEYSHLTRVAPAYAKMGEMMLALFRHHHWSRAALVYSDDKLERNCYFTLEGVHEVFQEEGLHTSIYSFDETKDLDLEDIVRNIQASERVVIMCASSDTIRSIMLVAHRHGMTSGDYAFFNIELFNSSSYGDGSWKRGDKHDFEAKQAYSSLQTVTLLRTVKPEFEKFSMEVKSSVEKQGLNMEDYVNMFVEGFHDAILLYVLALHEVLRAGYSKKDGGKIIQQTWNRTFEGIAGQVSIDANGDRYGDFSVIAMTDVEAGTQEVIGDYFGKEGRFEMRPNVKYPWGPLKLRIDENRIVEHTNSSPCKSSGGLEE

B1: WW06 FabCys (Fab, V domains shown)
VH: QVQLVQSGAEVKKPGESLKISCKGSGYSFTSYWIAWVRQMPGKGLEWMGRIDPDNSYTRYSPSFQGQVTISADKSISTAYLQWSSLKASDTAMYYCARWLSPGYALGEQPAGMDHWGQGTLVTVSS
VL: DIVLTQPPSVSGAPGQRVTISCTGSSSNIGAGYAVHWYQQLPGTAPKLLIYSNNKRPSGVPDRFSGSKSGTSASLAITGLQAEDEADYYCQSYDLQKSSRVFGGGTKLTVL
B2: WW01 FabCys (Fab, V domains shown)
VH: QVQLLESGGGLVQPGGSLRLSCAASGFTFNTHYIHWVRQAPGKGLEWVSSISGSGSNTYYADSVKGRFTISRDNSKNTLYLQMNSLRAEDTAVYYCARERGYVYYHMFDPWGQGTLVTVSS
VL: DIVLTQSPATLSLSPGERATLSCRASQSITRNYLAWYQQKPGQAPRLLIYGASSRATGIPARFSGSGSGTDFTLTISSLEPEDFAVYYCQQHSMYPRTFGQGTKVEIK
B3: XX03 IgG (antibody, V domains shown)
VH: EVQLLESGGGLVQPGGSLRLSCAASGFTFSSYWMNWVRQAPGKGLEWVSVIESKGNYIFYADSVKGRFTISRDNSKNTLYLQMNSLRAEDTAVYYCARDRYSMIYSYGAGAFDYWGQGTLVTVSS
VL: DIQMTQSPSSLSASVGDRVTITCRASQGISSYLAWYQQKPGKAPKLLIYTASTLQSGVPSRFSGSGSGTDFTLTISSLQPEDFATYYCMQSYEKPRTFGQGTKVEIKR
B4: YY03 IgG (YY03_LALA) (antibody, V domains shown)
VH: EVQLLESGGGLVQPGGSLRLSCAASGFTFSSYAISWVRQAPGKGLEWVSAISGSGGSTYYAESVKGRFTISRDNSKNTLYLQMNSLRAEDTAVYYCARESGYVYYLKFDYWGQGTLVTVSS
VL: B3 VL with G28S, A34N, T50A, T53S, M89Q, S91H, Y92V, E93R, K94V, R96I
B5: XX06 IgG (antibody, V domains shown)
VH: B3 VH with E1Q, V50A, E52S, K54D, N56S, I58T, F59Y
VL: B3 VL with M89Q, S91T, Y92W, E93R
B6: YY02 IgG (YY02_LALA) (antibody, V domains shown)
VH: EVQLVESGGGLVKPGGSLRLSCAASGFTFSSYSMNWVRQAPGKGLEWVSSISSSSSYIYYADSVKGRFTISRDNAKNSLYLQMNSLRAEDTAVYYCARSGYRGVYGFDYWGQGTLVTVSS
VL: B3 VL with L11V, Y32W, T50A, T53S, M89Q, S91Y, E93H, K94S, R96L
B7: YY01 IgG (YY01_LALA) (antibody, V domains shown)
VH: EVQLVESGGGLVQPGGSLRLSCAASGFTFSSYWISWVRQAPGKGLEWVANIKQSGSETYYVESVKGRFTISRDNAKNSLYLQMNSLRAEDTAVYYCARSLRRRSTEHAGFDVWGQGTLVTVSS
VL: B3 VL with S31N, A43V, T50A, F83V, M89Q, S91A, Y92D, E93K, K94F, R96Y
B8: XX08 (antibody, human IgG1, kappa, L234A L235A, V domains shown)
VH: B2 VH with Q1E, S52G, S54Q, S56G, N57M, Y59L
VL: DIVLTQSPATLSLSPGERATLSCRASQSITRNYLAWYQQKPGQAPRLLIYGASSRATGIPARFSGSGSGTDFTLTISSLEPEDFAVYYCQQHSMYPRTFGQGTKVEIKR
B9: YY04 IgG (YY04_LALA) (antibody, V domains shown)
VH: EVQLVESGGGLVKPGGSLRLSCAASGFTFSNYWISWVRQAPGKGLEWVGRIKSKTYGGTTDYAEPVKGRFTISRDDSKNTLYLQMNSLKTEDTAVYYCAREKYSIRARGHGDYGFDVWGQGTLVTVSS
VL: B3 VL with S31N, A43V, T50A, F83V, M89Q, S91G, E93H, K94A, R96F
B10: XX12 IgG (antibody, V domains shown)
VH: B3 VH with E1Q, V50A, E52S, K54D, N56S, I58T, F59Y
VL: B3 VL with M89Q, S91I, Y92W, E93M, K94A
B11: XX07 IgG (antibody, V domains shown)
VH: B3 VH with E1Q, V50A, E52S, K54D, N56S, I58T, F59Y
VL: B3 VL with M89Q, S91I, Y92W, E93T, K94V
B12: YY06 IgG (YY06_LALA) (antibody, V domains shown)
VH: EVQLLESGGGLVQPGGSLRLSCAASGFTFSSYAISWVRQAPGKGLEWVSAISGSGGSTYYAESVKGRFTISRDNSKNTLYLQMNSLRAEDTAVYYCARPYLGDRRSYGFDHWGQGTLVTVSS
VL: QSALTQPASVSGSPGQSITISCTGTSSDVGSYNLVSWYQQHPGKAPKLMIYEGSKRPSGVSNRFSGSKSGNTASLTISGLQAEDEADYYCSSYGFHIVVVVFGGGTKLTVLG
B13: YY05 IgG (YY05_LALA) (antibody, V domains shown)
VH: EVQLVQSGAEVKKPGESLKISCKGSGYSFTSYWISWVRQMPGKGLEWMGIIYPGTSYTRYSPSFQGQVTISADKSISTAYLQWSSLKASDTAMYYCARGAVAGQLGFDHWGQGTLVTVSS
VL: QSVLTQPPSVSGAPGQRVTISCTGSSSNIGAGYDVHWYQQLPGTAPKLLIYGNSNRPSGVPDRFSGSKSGTSASLAITGLQAEDEADYYCQSYYTSSHGPVFGGGTKLTVLG
B14: YY07 IgG (YY07_LALA) (antibody, V domains shown)
VH: B13 VH with A100S, V101L, A102P, Q104L
VL: B13 VL with S58N, Y94D, T95S, S96P, S97T, H98S, G99S, P100S

The target of the first test is T1, human NPR3 (counter target) (human). Description: FabCys affinity determination on hNPR3.
In the case of B1, the binding entry was “binds”.
Consider B2, for which the binding entry is given as “binds”.

The target in the next test is BSA (Bos taurus) (UniProt P02769). Description: ELISA, IgG titrated on BSA (irrelevant antigen).
Regarding B3, the binding entry is “no binding (tested: 200 nM)”.
On the same count and under the same terms, to B4 belongs “no binding (tested: 1000 nM)”; to B5, “no binding (tested: 200 nM)”; to B6, “no binding (tested: 1000 nM)”.
The same measure, in the same setting: the value for B7 was “no binding (tested: 1000 nM)”.

A further test shares this target. The test is described as follows: ELISA, IgG titrated on BSA (irrelevant antigen) [cont.].
Take B8: the binding result is “no binding (tested: 200 nM)”.
Same read-out and setting: the value for B9 was “no binding (tested: 1000 nM)”; that for B10 was “no binding (tested: 200 nM)”.
The same measure, in the same setting: the value for B11 was “no binding (tested: 200 nM)”.
With B12, the binding result is reported as “no binding (tested: 1000 nM)”.
On the same count and under the same terms, the value for B13 was “no binding (tested: 1000 nM)”; that for B14 was “no binding (tested: 1000 nM)”.
